Eleven sequences from paper PMC12584617 can be followed below.

Negatives hold for the conditions tested. At least one verdict was read from the data and is not stated in words by the source. Tags and fusion partners may be left off the protein sequences shown. For some assays here: The exact form of at least one protein or probe is not confirmed. For some assays here: A weaker result is weaker than the reference pair of the same experiment.

For data set [1], the system named is T1, NsrM (All0345) (Anabaena sp. strain PCC 7120).
T1 sequence (looked up): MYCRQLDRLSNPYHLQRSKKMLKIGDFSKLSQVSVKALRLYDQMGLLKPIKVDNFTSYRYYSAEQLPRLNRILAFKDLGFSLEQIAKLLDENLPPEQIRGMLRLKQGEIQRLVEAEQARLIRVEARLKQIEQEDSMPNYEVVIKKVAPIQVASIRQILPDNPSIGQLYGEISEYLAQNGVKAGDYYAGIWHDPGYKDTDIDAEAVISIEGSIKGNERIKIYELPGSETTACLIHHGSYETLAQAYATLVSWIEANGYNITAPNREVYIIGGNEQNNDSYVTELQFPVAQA
Briefly: EMSA. To be noted: 10 mM Bis-Tris-HCl pH 7.5, 40 mM KCl, 0.1 mg/mL BSA, 5% glycerol, 50 ng DNA, 50-100 ng ifpkn22 competitor, 30 min room temperature, recombinant protein, residues 1-290, protein details: His-tag (pET28 NdeI/SalI), probe letters rebuilt from the primers and the genome. In general terms: A gel shift assay detects complexes by their altered migration in electrophoresis.

In data set [2] the test system is T2, NsrX (Alr1976) (Anabaena sp. strain PCC 7120).
T2 sequence (looked up): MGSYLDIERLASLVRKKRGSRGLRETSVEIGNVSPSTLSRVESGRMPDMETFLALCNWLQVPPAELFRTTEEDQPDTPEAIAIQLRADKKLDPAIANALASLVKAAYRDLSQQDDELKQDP
Briefly: EMSA. To be noted: 10 mM Bis-Tris-HCl pH 7.5, 40 mM KCl, 0.1 mg/mL BSA, 5% glycerol, 50 ng DNA, 50-100 ng ifpkn22 competitor, 30 min room temperature, recombinant protein, residues 1-121, protein details: His-tag (pET28 NdeI/SalI), probe letters rebuilt from the primers and the genome.

In the case of “GGGTGAATAATGCCCTGCACAACTATAAAATTGTGAGCAATACCCACCCTATACTTATTTCAGCAAGCAAGTAAAAATCCTATATAGGACTCATATTTGATTTCTGAAAAACCAAATTGGCTAGAAGCTTGCTATACAGAGCTTTGTTTCTCAGTATACGTAGCAAAATTCAAGTACGATTCCTATAGATGAATTACTACACTTTAGTTAAAAATTAGGTTGTCACGGTTCAAAAAATTGTCTTAGAAAATATACAACGCATTTAAAAATGCCAAAATCACCACATAAATTATTTAAAGCTAATAGCTTCTGGAAAGAG (double strand) [PhepA proximal]”, the values for the binding result in data set [1], in data set [2] (100 uM Mn2+) and in data set [2] (no metal) were “no binding”, “binds” and “binds more weakly”, respectively.
As for “CATTTGGAACTCCTTAATGTTTACTTGATATTCAGTACAGTTGCACCTTGTCGCATCTTTACTGAAGTCTCTGTTTGGAGAGATACAAAAGTCATCCTTTGGGAGTATATATACTCAAAATGGCTGTACATCCCATCGGCTCTACTTTTCAATGAATCATTCTAAGGTGTTGTAGCCAGAAGTGGATAGATGAAACCATTAATTTATATGGATTTCGGCATTTTTTTTATTTTTTAGCTCATTGTTGCACTCAAAACCACCCCAAAAGTAGGAAAAAATACCTAGTAAATACCCTTGTGGCTAGGGGAACTTCGACTAAAAAACGTTGCCAATCATCTGAATTTAAAATTCCAAATTTAAAATTCCAAATTTCAGAAAGCTAGATTTACTCTGAGTTTCCGGGTTTAAAGTTCTCATCCTTTTTGAGCAAATTGTGATGACAGAATAGGTTACTCAACTACTGAATGTTAAATTGTGTTAACAAAATTAATCTCTGTCATGTTTAACCAGGGTCATTTGGCGATCGCCAAGCCTTGTCATCACC (double strand) [PhanA]”, in data set [2], the binding result is on record as “no binding”.
Turning to “TCTGGTTGATTACGTTTGGGTTTAGATTTTAGTGAGATCATATTTTGTGAATTAGAGGGAGAAAAAGCGAAATCGTGACTAGCTATTCCCAGGTAATCAGAAACTAGGGAACCAAGTACTAGACTCGAAATTAAAACTGGAACAGCAGCACGCATCATAAAAGTCTCTTTGTAAATTCTCTTATCTATTGCTACTGAGTTTTATATAACGAGTCCGGAAGAATCTAAAAAAAAGTAGTGCTTTTTACTGAAAATCCATGAAAGTGTGCATGGTGTCAATATATTCCACCAACAACCAATGACCGGAAGGATTGAGATGACCCCGAACCGTCAGATGTTGCTT (double strand) [PpatX]”, the binding result is “binds” in data set [1] (1 mM DTT) and “no binding” in data set [2].
Take “GGCGTGTGGCTCTTGTTCTAGTAGTACAGCCACCTTAAAGATAGCGATTGAATCCAGATTACGCGATCGCATCAACCCCAGCCTAGTAGTAGAAGCAGTTTAGTTAACAGTTAACAGTAAACCGTTAACTAACACCCAAAAGAACTTTCACAACTACATAACGAACCCATCATGAACACTAATTCTACTGGTTTTTCTGTGGAGCGATCGCCCCCTCTTCGGCGACGTTCTACAAACCCCTCACAGCCATAGCTCAACAGGCGTGAGATCCAAACACAAAGACCGACCAACTAACCAACC (double strand) [PnifHDK]”: the values for the binding result in data set [1] and in data set [2] (no metal) were “no binding” and “binds more weakly”, respectively.
As to “CGAAGATTGAATCTTCCTGTGTCAGTTGTATTTCAGGTAAGCCATAACTATTATTCAGTTTTTGAGATTATATACAATAAAGTTTCTGTAAGAAGTTGTTCTAGGTTTTTAAAGCTTTTCACATCAACTTTATTTTAAAGTCAACAATAGTTTGAGTTTTTACTGAACTTTTCGTGTTTACACGTAAGTAAATCCCTCATTTTTTTTGATTTTATTAAAGCTAGACGTAGTTGTATGCTAATTACGTAAAATTACCCAATGTACGTTTTGTTCATCATCAAATTCAGGAGTGGGAGATGAGCAATTTTATCAAAAGTAAAATC (double strand) [Pasr1734 distal]”, the binding result in data set [1] (1 mM DTT) is reported as “binds”; in data set [2], “no binding”.
“GGAGCTTGATTGGATATGTGAGATGGCAAAACAAACGATTAACTTGTAACAAAATTGTCTCGCCCCAACCCTAAATCTACGACATATAGAGGAGCGCTAGTTCAGATACCTGTTAGGTCAACCGTTTAATATCTGCACAGCTATAAATATCACTCTGAATTTTAGTTAATTAGATTAATTTTTATTTAAAGGAATTAGAATTTAGTATCAAAAATAACAATTCAATGGTTAAATATCAAACTAATATCACAATCTAAAGCTTGACCTTGTGAACTCTCAGGGAGCTAGCTGATTCATCAAGGGGAAATTTAACCAAGATATGAGTAGACGAATTAACCGACGCAGA (double strand) [PurtA]”: the binding result in data set [1] is “no binding”; in data set [2] (100 uM Mn2+), “binds”.
In the case of “GCTTTGAATTTCTCAAACTTATTGAGGCTGGCTTTGGGGGTAGTTACTGTATCTGTCATGAGCTGGTTCTCATAAAGTTTTTTTGCTCAAGATCAATCCACCCGTAGTCTTTGCTAGTTCTACGAGGTCTAGTGATAGCAATTTAGTAATCTTGAAAGAACCTCTCCCCCAACCCCTCTCTCTTTAAAAGTTCTGTTCGGAGGAAACCTCCGCTCAGACTTTTCGCTCCGACGCGGAGAGGGGAGTTTGGCTCCCACTTCCCTACAAGGGAAGGGGGCTGGGGGGTAAGGTTTTTGATTAATGAATCGATGCTCTAATAGTGAA (double strand) [Pnir (fragment not stated)]”, the binding result in data set [1] (1 mM DTT) is on record as “binds”.
Take “CTTTCTATACGGTGTCAAGTTTACTTCTATTCGGTTGGTATTTTCAGTAGACTTGACAGTACTGGAGACCTAGAATACATTAAGAAATATATAGCAATTTAATATTGACTTAATATTTTTCCTGCAAGAAAAGGCTTTTTGGCAAACCCAAAATTTTTTCTGGTCTGTCTAATATCACTTTCTAATCAGTCACAATAATATCCTGCAACCAAAAATAAAGCACTTGAAACCTAGCACTTGACGAGCAGGTAAAAACGTATATTATTAAATAACGAGCGTTCGATATAAATAATCCGTAATTATGCCTAAGATTGTTGATCATGACCAATATCGGAAAGAAC (double strand) [Palr3646-49]”: the binding result in data set [1] (1 mM DTT) was “binds”; in data set [2] it was “no binding”.
As for “CTAATAAGTAACCTACAAGGACTTTCCCTATTATCCGGAACTTATCTGCTCTTTAATAGCGTCAATAAATTTGCTATTTTTAAGACTTTTGGGCTGCACCCGGATTTAGGAGATAGCAACACAACGGCCAACAATGGGAGATTATAATCGCACAATCTCTCCTTGAGGTGAATACTCTATTCCTGAGTAATTTTACTCAGATGCTGACCGATTATTTCCAGAAATAACAGGAAGTGATTTTTTGAAAAAGTCACCTGCCGACTACGCCAAACTCACTAACGCCCATTGAATCAATAGAGCGTTCTTATCTGCCGAGATGCTGACAATTTTTTTGCTCTTATGGCAGTGTAGGTCGTTGGCTGGAGGGAAAATTATAGAC (double strand) [PhetR middle]”, the binding result in data set [1] (1 mM DTT) and in data set [2] (100 uM Mn2+) was “binds” in each case.
As for “CCCATGTAGATGTGACTATGCCGATAATAAACATAATTTTTACTGAAATATGTTTATACAACATACCCAAGTTACAGTTAATAGCCAACAAGGTGAAAACGCTGACTAAGTAATTCGGAAATTAAAATCTAATCGTAAATTTGAATAGCTATTGGTTCAATCAGACTCTCAACAGCCAACTATAGTTAGGCTGTAATGTCTGAAAACAACCACTAAGGTTTTTTTGTAAAAAAAATTTTAGTGAAAACCTTAACCGTGTTAGTTCATCTAGAATCACGGGAACAATAGCAACAGTTAAATAGCTGACCGCAATCTATTGTTACCTGGAGCCATAGAGACGATCTTATGCCAGCAAC (double strand) [PsigC]”, the figures for the binding result in data set [1] (1 mM DTT) and in data set [2] were “binds” and “no binding”, respectively.
“CATCTTGGAAACCAAGTTGCACAAACATCAGTAAGACAATAAAAGCAATGCCAGCTACAGCTATAAGAAAACGAATTTTCTGTTGGACTAGCTGTAGCCATGCTAAAGGAATTTTAAAATTCATATTGATTTTGTCAGTTGACAGTTGATAGTTGATAGTTGTCAGTTGACTAATGACAATTAAATTTGAATCGCTACATCAACTTGTAAGTTGGTCAAACGTCCTACCCGTTCGCTATCTGCG (double strand) [PhgdC]”: the binding result in data set [1] is given as “no binding”.
